According to PubChem BioAssay AID651582 (Sanford-Burnham Center for Chemical Genomics, 2012):
The list shows a part of the results.

test: inhibitors of triacylglycerol accumulation, primary screen, cell-based, uHTS, fluorescence, H9c2 (AID 651582); conditions: H9c2 cells, Nile Red lipid (TAG) fluorescence; DAPI nuclei count viability; at 12.5 µM; cells loaded with 200 µM oleic acid

Structure (SMILES)	DAPI activity (viability loss) [%]
O=[N+]([O-])c1cc([N+](=O)[O-])c(Nc2cccnc2)c([N+](=O)[O-])c1	-0.071
O=[As](O)(c1ccc(O)cc1)c1ccccc1O	8.1
COc1cc(C(=O)NCC2(N3CCOCC3)CCCCC2)ccc1OCC(C)C	-5.67
O=[N+]([O-])c1ccc(-c2cc([N+](=O)[O-])c(O)c([N+](=O)[O-])c2)cc1	-12.6
Cc1cccc(C)c1OP(C)(N)=O (configuration not stated)	-7.99
Cc1ccc2nc3c(c(C)c2c1)CC(C(Cl)Cl)S3 (configuration not stated)	6.23
O=[N+]([O-])c1ccc2c(c1)C=Nc1ccccc1O2	-2.78
ClCCSc1nnc(-c2cccnc2)o1	6.04
CC(C)c1ccc(OP(=O)(Nc2ccccn2)Oc2ccccc2F)cc1 (configuration not stated)	-9.99
Cc1ccc(NP(C)(=O)Oc2ccccc2)c(C)c1 (configuration not stated)	-16.2
COC(=O)C1(C)COP(=O)(N2CCCCCC2)OC1 (configuration not stated)	-6.3
O=C(OC1CN2CCC1CC2)c1cccc2[nH]cnc12 (configuration not stated)	5.94
CCN(CC)C(=S)SC(NC=O)C(Cl)(Cl)Cl (configuration not stated)	-59
COc1ccccc1OP(C)(=O)Nc1cc(Cl)ccc1C (configuration not stated)	4.69
O=[N+]([O-])c1cc([N+](=O)[O-])c(-c2ccn[nH]2)s1	-1.35
COc1ccc(OP(C)(=O)Nc2cccc(F)c2)cc1 (configuration not stated)	7.79
Cc1cc(C)cc(OP(C)(N)=O)c1 (configuration not stated)	1.28
Cc1c2c(nc3ccccc13)SC(C(Cl)Cl)C2 (configuration not stated)	20.1
O=C(OC1CN2CCC1CC2)C12CC3CC(CC(C3)C1)C2 (configuration not stated)	18
CCN(CC)CCCOC(=O)C(O)(c1ccccc1)c1ccccc1	-5.2
O=P1(N(CCCl)CCCl)OCCCN1CCCl (configuration not stated)	5.83
O=P1(N(CCCl)CCCl)Nc2ccccc2N1	-5.57

Structure (SMILES)	DAPI activity (viability loss) [%]
COc1ccc2nc(NP(=O)(c3ccccc3)c3ccccc3)sc2c1	3.96
COc1cc(I)ccc1[As](=O)(O)O	-3.44
O=[N+]([O-])c1cc(Oc2ccc([N+](=O)[O-])cc2C(F)(F)F)cc([N+](=O)[O-])c1	6.3
COc1ccc(N/C(=N/P(=O)(N2CCOCC2)N2CCOCC2)N2CCOCC2)cc1	0.541
Cc1ccc(Nc2c([N+](=O)[O-])cc([N+](=O)[O-])cc2[N+](=O)[O-])cc1	-18.2
CP(=O)(Nc1ccc(SC(F)(F)F)cc1)Oc1ccc(Cl)cc1 (configuration not stated)	0.555
CP(=O)(Oc1ccccc1)OC(c1ccccc1)C(F)(F)F (configuration not stated)	-7
CCc1ccc(OP(C)(=O)N2CCN(c3ccc([N+](=O)[O-])cc3)CC2)cc1 (configuration not stated)	3.5
O=C(COc1ccccc1)OC1CN2CCC1CC2 (configuration not stated)	-0.681
CCOP(C)(=S)SCC(=O)NC(C)C(=O)O (configuration not stated)	4
CSc1ccc(Nc2c([N+](=O)[O-])cc([N+](=O)[O-])cc2[N+](=O)[O-])cc1	-3.88
CCOC(=O)c1ccc(NC(=O)C(C)(CCl)SC)cc1 (configuration not stated)	-3.91
O=[N+]([O-])c1cc([N+](=O)[O-])c(O)c([N+](=O)[O-])c1.c1ccc(Oc2ccncc2)cc1	-7.58
CCC(C)N(CC(C)C)C(=S)SC(NC(C)=O)C(Cl)(Cl)Cl (configuration not stated)	-6.16
CCOC(=O)Nc1ccc([As](=O)(O)O)c(O)c1	-7.49
O=C(O)C(=O)c1ccc(N(CCCl)CCCl)cc1.c1ccc(Nc2ccccc2)cc1	-1.28
CC1CCNP(=O)(N(CCCl)CCCl)O1 (configuration not stated)	-0.183
COP(=O)(OC)N1CC1c1ccccc1 (configuration not stated)	7.74
CP(=S)(Nn1cnnc1)Oc1ccccc1 (configuration not stated)	0.759
O=P(Nc1ccccn1)(c1cccc2ccccc12)c1cccc2ccccc12	-10.2
Cc1cc(SC(NC=O)C(Cl)(Cl)Cl)ncn1 (configuration not stated)	-1.76
COc1ccccc1OP(C)(=O)Nc1ccccc1 (configuration not stated)	-9.96

Structure (SMILES)	DAPI activity (viability loss) [%]
CC1CCC(C(C)C)C(OP(=O)(Nc2ccccn2)c2ccccc2)C1 (configuration not stated)	12.6
CN(C)C1(CNC(=O)c2ccc(S(C)(=O)=O)cc2)CCCCC1	-10.5
CC1=C2N=C(C=C3N=C(C(C)=C4[N-][C@@](C)([C@@H]5N=C1[C@](C)(CCC(=O)NC[C@@H](C)OP(=O)([O-])O[C@H]1[C@@H](O)[C@@H](n6cnc7cc(C)c(C)cc76)O[C@@H]1CO)[C@H]5CC(N)=O)[C@@](C)(CC(N)=O)[C@@H]4CCC(N)=O)[C@@](C)(CC(N)=O)[C@@H]3CCC(N)=O)C(C)(C)[C@@H]2CCC(N)=O.[C-]#N.[Co+3]	-2.55
CCOC(=O)C(CC)C1=NC(C)(C)Cc2ccccc21.O=[N+]([O-])c1cc([N+](=O)[O-])c(O)c([N+](=O)[O-])c1 (configuration not stated)	5.64
O=C(/C=C/c1ccccc1)OC1CN2CCC1CC2 (configuration not stated)	-9.81
CCCC1OP(=O)(Nc2ccccc2)OCC1CC (configuration not stated)	7.93
O=P1(Nc2ncccn2)COc2ccccc2OC1	6.06
COc1ccccc1OP(C)(=O)Nc1c(C)cccc1C (configuration not stated)	12.6
CN1CCCCC1COC(=O)C1(O)c2ccccc2CCc2ccccc21 (configuration not stated)	-10.7
Nc1cccc([As](=O)(O)c2ccccc2)c1	4.42
CCCOc1ccc(NP(C)(=O)Oc2ccc(Cl)cc2)cc1 (configuration not stated)	7.16
O=P1(Nc2ccc(Br)cn2)COc2ccccc2OC1	7.92
NS(=O)(=O)c1cccc(NC(=O)COC(=O)C(O)(c2ccccc2)c2ccccc2)c1	1.53
Cc1ccc(OCC(=O)OC2CN3CCC2CC3)cc1 (configuration not stated)	-6.11
O=C(O)C(O)c1ccc(N(CCCl)CCCl)cc1.c1ccncc1 (configuration not stated)	-2.26
O=P1(Nc2ccccn2)COc2ccccc2OC1	11.8
O=[N+]([O-])c1cc([N+](=O)[O-])c(-n2nnc3ccccc32)c([N+](=O)[O-])c1	-4.67
CN(CCCl)Cc1cc(Cl)c(NC2=NCCN2)c(Cl)c1	-2.53
O=P1(N(CCCl)CCCl)NCCC(C(F)(F)F)O1 (configuration not stated)	11
Clc1n[nH]nc1-c1nn[nH][15n]1	0.505
CC(C)(C)C(=O)NC(Sc1ncccn1)C(Cl)(Cl)Cl (configuration not stated)	-2.97
O=[N+]([O-])c1cc([N+](=O)[O-])c(-c2cnn(-c3ccccc3)c2)c([N+](=O)[O-])c1	-19.4

Structure (SMILES)	DAPI activity (viability loss) [%]
COc1ccccc1CNC(=O)COC(=O)C(O)(c1ccccc1)c1ccccc1	3.49
CC(C)/C=N\N=C(\N)N[N+](=O)[O-]	3.72
CN(C(=O)Cc1ccc(Cl)c(Cl)c1)[C@@H]1CCCC[C@H]1N1CCCC1	8.97
Cc1nc2ccc3ccccc3c2s1.O=[N+]([O-])c1cc([N+](=O)[O-])c(O)c([N+](=O)[O-])c1	3.57
CC1(CBr)Cn2c(nc3ccccc3c2=O)S1 (configuration not stated)	3.63
O=C(OC1CN2CCC1CC2)c1ccc(Cl)cc1 (configuration not stated)	-14.7
COc1cc(C(=O)NCC2(N3CCOCC3)CCCCC2)cc(Cl)c1OC(C)C	2.72
O=[As](O)(O)c1cccnc1	8.15
COc1ccccc1OP(C)(=O)Nc1cccc(Br)c1 (configuration not stated)	-5.9
O=[As](O)(c1cccc(O)c1)c1cccc(O)c1	-2.24
Cc1cccc(OCC(=O)OC2CN3CCC2CC3)c1 (configuration not stated)	-0.0983
CP(=O)(Nc1cccc(Br)c1)Oc1ccccc1 (configuration not stated)	4.66
Cc1ccc(NCCc2c([N+](=O)[O-])cc([N+](=O)[O-])cc2[N+](=O)[O-])cc1	-1.84
Cc1ccc(C)c(NP(C)(=O)Oc2ccccc2)c1 (configuration not stated)	-2.54
O=C(O)c1cccc(Nc2c([N+](=O)[O-])cc([N+](=O)[O-])cc2[N+](=O)[O-])c1	-4.28
O=P(Nc1nccs1)(Oc1ccccc1)Oc1ccccc1	-2.54
CS(=O)(=O)c1cc([N+](=O)[O-])c2no[n+]([O-])c2c1	4.86
Nc1ccccc1[As](=O)(O)c1ccccc1	-11.2
NC(=O)Nc1ccc([As](=O)(O)O)cc1	-1.92
N#CCCN(C(=O)COC(=O)C(O)(c1ccccc1)c1ccccc1)c1ccc(F)cc1	-3.93
CN(C(=O)Cc1ccccc1)[C@@H]1CC[C@]2(CCCO2)C[C@H]1N1CCCC1	-1.23
CN(C)C(=O)c1cc([N+](=O)[O-])cc2c1-c1c(cc([N+](=O)[O-])cc1[N+](=O)[O-])C2=O	-49.4

Structure (SMILES)	DAPI activity (viability loss) [%]
CN(C(=O)Cc1ccc(Cl)c(Cl)c1)[C@H]1CC[C@@]2(CCCO2)C[C@@H]1N1CCCC1	-1.81
CC1=NCCc2c1[nH]c1ccccc21.O=[N+]([O-])c1cc([N+](=O)[O-])c(O)c([N+](=O)[O-])c1	0.358
Cc1ccc(NP(=O)(Oc2cccc(C)c2)Oc2cccc(C)c2)nc1	8.29
CCNC(=S)/N=C(\N)N[N+](=O)[O-]	-1.05
COc1ccc(OP(C)(=O)Nc2ccc(SC(F)(F)F)cc2)cc1 (configuration not stated)	-4.4
O=P1(N(CCCl)CCCl)OCCC2CCCCN21 (configuration not stated)	-1.56
CCN(CC)CCCOC(=O)C(O)(c1ccccc1)C1CCCCC1 (configuration not stated)	13.8
CCC(=O)N1C2C3N(C(=O)CC)C1C1N(C(=O)CC)C(C(N1C(=O)CC)N3C(=O)CC)N2C(=O)CC	8.37
Cc1c([N+](=O)[O-])cc([N+](=O)[O-])c(Br)c1[N+](=O)[O-]	3.95
COC(=O)c1cc2c(s1)N=C(c1ccccc1)N(C)P2(=O)N1CCOCC1 (configuration not stated)	-0.924
Cc1ccc(OP(=O)(Nc2ccccn2)Oc2ccc(C)cc2)cc1	-0.456
CC(=O)NC(SC(=S)N(CC(C)C)CC(C)C)C(Cl)(Cl)Cl (configuration not stated)	-10
Cc1ccccc1OP(=O)(Nc1ccccn1)Oc1ccccc1C	-1.97
CC(NC(=O)COC(=O)C(O)(c1ccccc1)c1ccccc1)c1ccccc1 (configuration not stated)	0.0647
CN(C)C(=O)Oc1noc2ccccc12	5.21
O=[N+]([O-])c1cc([N+](=O)[O-])c(OC2CCCCC2O)c([N+](=O)[O-])c1 (configuration not stated)	-9.92
O=c1c2cc([N+](=O)[O-])ccc2[nH]c2c([N+](=O)[O-])cc([N+](=O)[O-])cc12	-44
CCCCCOc1ccc(NP(C)(=O)Oc2ccc(Cl)cc2Cl)cc1 (configuration not stated)	4.39
O=P1(Nc2nc3ccc(Cl)cc3s2)COc2ccccc2O1 (configuration not stated)	3.97
